Among the data in publication PMC10754441 are binding values, retold here.

Assay [1] deals with DjlA variant with a C-terminal HA-tag (DjlA-HA) (Caulobacter crescentus). Briefly: co-IP; anti-HA affinity matrix pull-down of HA-tagged DjlA from C. crescentus lysates, with or without NAL (10 ug/mL, 2 hours); beads overnight at 4°C, washed with 10 mM Tris-HCl 7.5, 150 mM NaCl, 0.5 mM EDTA, 0.5% DDM; immunoblot with polyclonal antibodies to AcrA and TipR. Background: A western blot detects proteins with antibodies after separation by electrophoresis.

Assay [2] has the same target. In words: ChIP-Seq; formaldehyde-crosslinked chromatin from cells expressing DjlA-HA from the xylX locus, with or without NAL (20 ug/mL, 30 minutes); immunoprecipitation of DjlA-HA by its HA tag; occupancy of the acrA promoter compared with tipR::Tn cells.

Results are given in words; binding and its absence hold for the method and conditions named. A result given as binding can be weak or reduced; the word gives no strength. For some assays here: Binding seen in cells or lysates may run through a third protein.

For TipR (from UniProt A0A0H3C6G9), the binding entry in assay [1] and in assay [2] was “binds” each time.
